{"source": "patent US20260002931A1", "about": "“CULTURED CELL SHEET AND METHOD FOR PRODUCING SAME; METHOD FOR EVALUATING COMPOUND OR DRUG; AND METHOD FOR EVALUATING QUALITY OF CULTURED CELL SHEET” (OJI HOLDINGS CORPORATION, priority 2022, published 2026)", "key": {"[1]": {"system": "iCell cardiomyocyte CM2 (human iPS cell-derived cardiomyocytes)", "assay": "Drug safety test-1: arrhythmia measurement by Ca-imaging (CQ1)", "format": "cell-based", "conditions": "wells of 6; for incidence of moderate to severe arrhythmia (DAD, VT-like): aligned plate; for incidence of moderate to severe arrhythmia: planar plate", "description": "(§1) The drug was dissolved in DMSO and cumulatively administered. First, the measurement as dose0 was performed without adding drugs. […] Subsequently, immediately after the measurement, the drug was added to the same well, respectively so that the concentration was dose2, and the measurement was performed after 15 minutes. The same was done for dose3.\n(§2) For the cell responsiveness after the drug administration, an arrhythmia measurement method by Ca-imaging using a confocal imaging device (CQ1, manufactured by Yokogawa Electric Corporation) and a motion test method using a live cell imaging device (SI8000, manufactured by Sony Corporation) were performed to investigate the effect on the beating rate and the line width of the beating peak.\nTo CM2 on day 6 of maintenance culture, a fluorescent Ca indicator (EarlyTox carditotoxicity kit, manufactured by Molecular Devices, LLC.) was added, and living cells were stained. First, the change in Ca fluorescence intensity associated with the contraction of cardiomyocytes was measured as Dose0 in CQ1 without adding drugs. Immediately after the measurement, each drug at the concentration of Dose1 was added to the same well plate, and the change in Ca fluorescence intensity was measured after 15 minutes. For Dose2 and Dose3, the drug was cumulatively administered in the same manner, and the change in Ca fluorescence intensity was measured. The addition test of each drug was performed at n=6.\nThe significant difference test was performed between the subject group in which DMSO was added and the drug addition group in CM2 cultured in the planar plate and CM2 cultured the aligned plate.\nFor the side effects seen from the waveform changes of Ca transient, early after depolarization (EAD) and delayed after depolarization (DAD), small regular waveforms (VT-like), and reaction (waveform) disappearance were recorded. The“−” in the table indicates the state in which no arrhythmia or the like has occurred. The degree of arrhythmia is mild for EAD, moderate for DAD, and severe for vt-like."}, "[2]": {"system": "iCell cardiomyocyte CM2 (human iPS cell-derived cardiomyocytes)", "assay": "Drug safety test-1: motion test method using live cell imaging device (SI8000)", "format": "cell-based", "conditions": "for incidence of arrhythmia: wells of 6; for wells in which arrhythmia occurred: over all doses 0.1-1 μM", "description": "as §1, §2\nCM2 on day 5 of maintenance culture was used, and video data was first obtained as Dose0 using SI8000 (manufactured by Sony Corporation) without adding drugs. Immediately after the measurement, each drug at the concentration of dose1 was added to the same well plate, and video data was obtained after 15 minutes. For Dose2 and Dose3, the drug was cumulatively administered in the same manner, and video data was obtained. The addition test of each drug was performed at n=6.\nThe beating rate (BR), the contractile velocity (CV), the relaxation velocity (RV), and the contraction-relaxation duration (CRD) were analyzed from the video data of S18000, and the effects of the drugs on the motion of the cells were compared. The contraction-relaxation duration (CRD) was corrected by the following equation with reference to the equation of Frederica to correct variation due to the beating rate (BR).\nFor the side effects seen from the change in the parameters of SI8000, early after depolarization (EAD) and delayed after depolarization (DAD), small regular waveforms (VT-like), and reaction (waveform) disappearance were recorded. Changes in waveforms not classified into EAD or DAD were described as arrhythmia. The “-” in the table indicates the state in which no arrhythmia or the like has occurred.\nThe degree of arrhythmia is mild for EAD, moderate for DAD, and severe for vt-like."}}}
{"smiles": "Cc1cccc(CCN2CCC(C(=O)c3ccc(NS(C)(=O)=O)cc3)CC2)n1", "note": "[E-4031]", "values": [{"measurement": "incidence of moderate to severe arrhythmia (DAD, VT-like)", "setting": "[1]; E-4031 Dose1, 0.1 μM", "result": "0/6"}, {"measurement": "incidence of moderate to severe arrhythmia (DAD, VT-like)", "setting": "[1]; E-4031 Dose2, 0.3 μM", "result": "1/6"}, {"measurement": "incidence of moderate to severe arrhythmia (DAD, VT-like)", "setting": "[1]; E-4031 Dose3, 1 μM", "result": "4/6"}, {"measurement": "incidence of moderate to severe arrhythmia", "setting": "[1]; E-4031 Dose1, 0.1 μM", "result": "3/6"}, {"measurement": "incidence of moderate to severe arrhythmia", "setting": "[1]; E-4031 Dose2, 0.3 μM", "result": "6/6"}, {"measurement": "incidence of moderate to severe arrhythmia", "setting": "[1]; E-4031 Dose3, 1 μM", "result": "6/6"}, {"measurement": "incidence of arrhythmia", "setting": "[2]; aligned plate, high concentration (Dose3, 1 μM)", "result": "1/6"}, {"measurement": "incidence of arrhythmia", "setting": "[2]; aligned plate, low concentration (Dose1, 0.1 μM)", "result": "1/6"}, {"measurement": "incidence of arrhythmia", "setting": "[2]; aligned plate, medium concentration (Dose2, 0.3 μM)", "result": "1/6"}, {"measurement": "wells in which arrhythmia occurred", "setting": "[2]; aligned plate", "result": "1 of 6"}, {"measurement": "incidence of arrhythmia", "setting": "[2]; planar plate, high concentration (Dose3, 1 μM)", "result": "6/6"}, {"measurement": "incidence of arrhythmia", "setting": "[2]; planar plate, low concentration (Dose1, 0.1 μM)", "result": "3/6"}, {"measurement": "incidence of arrhythmia", "setting": "[2]; planar plate, medium concentration (Dose2, 0.3 μM)", "result": "5/6"}, {"measurement": "wells in which arrhythmia occurred", "setting": "[2]; planar plate", "result": "6 of 6"}]}
